{
  "source": "patent US20070027175A1",
  "about": "“Antineoplastic activities of ellipticine and its derivatives” (priority 2005, published 2007)",
  "origin": "cited, not measured here",
  "key": {"[1]": {"details": "NCI in vivo screening data; cited from earlier work"}, "[2]": {"test_system": "tumor model", "details": "9.37 mg/kg to 75.0 mg/kg; BDF1 mice; endpoint of 60 days; cited from earlier work"}},
  "data": [
    {"smiles": "COc1ccc2[nH]c3c(C)c4ccncc4c(C)c3c2c1", "note": "[NSC 69187, ellipticine-9-methoxy-]", "values": [
      {"measurement": "dosages for animals surviving the toxicity of the compounds", "setting": "[1]", "value": 37.5, "unit": "mg/kg body weight"},
      {"measurement": "animals survived the tumor model and dose toxicity", "setting": "[2]", "value": "more than 90%"}
    ]}
  ]
}
